From the supplement of paper PMC12823440, “Inhibitors supercharge kinase turnover through native proteolytic circuits” (Nature, 2025)
The list shows a part of the results. Hit calls seldom repeat between salt and free forms of one compound.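 Kinases, fused to nanoluciferase, were expressed in K562 cells; luminescence was measured every 4 h from 2 to 18 h as percent of control (DMSO = 100%, positive control = 0%). A time point is decreased if signal falls significantly (2 sigma). Hits were called by the authors by a rule that is not shown; the count of time points alone does not decide it.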

By UniProt entry, the sequences of proteins in these tests, tags left out. Where a name states a change or a piece, a line headed by the entry shows the natural chain unless it says otherwise.
UniProt O75460: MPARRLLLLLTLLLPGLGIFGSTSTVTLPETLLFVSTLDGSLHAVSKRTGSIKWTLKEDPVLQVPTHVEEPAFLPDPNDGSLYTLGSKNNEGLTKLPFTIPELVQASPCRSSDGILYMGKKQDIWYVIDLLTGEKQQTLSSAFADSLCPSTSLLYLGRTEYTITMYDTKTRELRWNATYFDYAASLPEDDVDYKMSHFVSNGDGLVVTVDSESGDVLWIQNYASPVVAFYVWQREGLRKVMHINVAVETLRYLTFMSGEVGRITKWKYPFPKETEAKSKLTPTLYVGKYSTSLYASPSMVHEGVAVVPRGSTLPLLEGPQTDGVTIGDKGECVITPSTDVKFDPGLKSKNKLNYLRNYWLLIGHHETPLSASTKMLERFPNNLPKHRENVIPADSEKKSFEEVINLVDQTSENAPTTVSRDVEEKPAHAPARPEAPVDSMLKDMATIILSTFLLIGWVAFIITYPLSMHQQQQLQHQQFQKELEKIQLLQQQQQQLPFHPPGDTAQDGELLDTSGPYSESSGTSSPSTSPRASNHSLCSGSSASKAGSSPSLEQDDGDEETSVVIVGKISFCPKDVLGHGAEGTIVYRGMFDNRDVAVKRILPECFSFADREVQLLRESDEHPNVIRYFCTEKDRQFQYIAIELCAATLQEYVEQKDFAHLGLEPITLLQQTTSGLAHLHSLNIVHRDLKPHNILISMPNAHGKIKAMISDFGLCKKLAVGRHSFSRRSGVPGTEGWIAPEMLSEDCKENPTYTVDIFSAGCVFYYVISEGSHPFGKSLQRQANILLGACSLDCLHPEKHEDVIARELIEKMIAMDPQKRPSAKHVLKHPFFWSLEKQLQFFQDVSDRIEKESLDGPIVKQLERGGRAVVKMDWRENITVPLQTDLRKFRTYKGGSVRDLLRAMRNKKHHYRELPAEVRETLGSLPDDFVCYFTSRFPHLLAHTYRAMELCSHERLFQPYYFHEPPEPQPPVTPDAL
UniProt P11362, whole entry, looked up: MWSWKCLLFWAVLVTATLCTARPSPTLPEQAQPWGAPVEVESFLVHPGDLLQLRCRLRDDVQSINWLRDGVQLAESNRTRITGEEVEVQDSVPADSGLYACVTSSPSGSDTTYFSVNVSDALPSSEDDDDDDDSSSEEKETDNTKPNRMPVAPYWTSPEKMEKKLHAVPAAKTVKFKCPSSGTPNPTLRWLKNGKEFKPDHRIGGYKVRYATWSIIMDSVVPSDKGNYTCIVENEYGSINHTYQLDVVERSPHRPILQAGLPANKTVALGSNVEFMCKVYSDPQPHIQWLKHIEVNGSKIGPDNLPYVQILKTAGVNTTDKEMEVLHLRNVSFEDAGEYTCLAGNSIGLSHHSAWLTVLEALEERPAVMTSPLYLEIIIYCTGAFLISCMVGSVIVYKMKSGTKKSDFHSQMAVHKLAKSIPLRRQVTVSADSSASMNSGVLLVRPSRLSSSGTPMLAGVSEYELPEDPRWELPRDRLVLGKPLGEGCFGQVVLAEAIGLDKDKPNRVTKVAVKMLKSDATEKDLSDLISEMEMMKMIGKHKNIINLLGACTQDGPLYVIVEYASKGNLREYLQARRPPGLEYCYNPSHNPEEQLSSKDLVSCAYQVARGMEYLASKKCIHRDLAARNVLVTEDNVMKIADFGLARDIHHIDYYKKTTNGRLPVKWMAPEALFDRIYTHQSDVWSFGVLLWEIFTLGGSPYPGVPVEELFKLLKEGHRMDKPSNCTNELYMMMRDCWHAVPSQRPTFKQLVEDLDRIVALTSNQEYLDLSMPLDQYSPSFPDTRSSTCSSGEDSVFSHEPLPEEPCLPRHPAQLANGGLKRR
UniProt P22607, whole entry, looked up: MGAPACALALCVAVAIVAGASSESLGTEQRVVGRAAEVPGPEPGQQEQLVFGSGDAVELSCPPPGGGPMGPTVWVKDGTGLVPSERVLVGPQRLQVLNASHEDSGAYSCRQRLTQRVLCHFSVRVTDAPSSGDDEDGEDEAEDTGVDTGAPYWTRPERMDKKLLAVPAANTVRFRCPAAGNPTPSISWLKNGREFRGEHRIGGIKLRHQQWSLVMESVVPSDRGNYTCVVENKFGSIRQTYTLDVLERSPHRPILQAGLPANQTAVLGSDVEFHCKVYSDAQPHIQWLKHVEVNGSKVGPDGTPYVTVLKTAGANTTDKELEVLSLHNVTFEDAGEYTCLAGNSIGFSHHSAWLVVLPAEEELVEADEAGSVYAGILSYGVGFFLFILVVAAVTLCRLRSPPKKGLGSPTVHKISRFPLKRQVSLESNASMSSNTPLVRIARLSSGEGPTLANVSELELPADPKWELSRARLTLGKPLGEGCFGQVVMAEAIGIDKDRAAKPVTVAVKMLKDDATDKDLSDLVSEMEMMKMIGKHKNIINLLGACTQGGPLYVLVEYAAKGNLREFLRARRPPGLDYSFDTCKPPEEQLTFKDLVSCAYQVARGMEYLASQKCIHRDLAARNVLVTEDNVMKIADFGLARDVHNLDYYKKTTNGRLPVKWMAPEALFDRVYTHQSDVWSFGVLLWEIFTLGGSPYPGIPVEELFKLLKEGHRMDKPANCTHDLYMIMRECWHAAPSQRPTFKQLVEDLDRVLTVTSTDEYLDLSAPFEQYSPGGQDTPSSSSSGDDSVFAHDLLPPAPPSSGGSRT
UniProt P36888, whole entry: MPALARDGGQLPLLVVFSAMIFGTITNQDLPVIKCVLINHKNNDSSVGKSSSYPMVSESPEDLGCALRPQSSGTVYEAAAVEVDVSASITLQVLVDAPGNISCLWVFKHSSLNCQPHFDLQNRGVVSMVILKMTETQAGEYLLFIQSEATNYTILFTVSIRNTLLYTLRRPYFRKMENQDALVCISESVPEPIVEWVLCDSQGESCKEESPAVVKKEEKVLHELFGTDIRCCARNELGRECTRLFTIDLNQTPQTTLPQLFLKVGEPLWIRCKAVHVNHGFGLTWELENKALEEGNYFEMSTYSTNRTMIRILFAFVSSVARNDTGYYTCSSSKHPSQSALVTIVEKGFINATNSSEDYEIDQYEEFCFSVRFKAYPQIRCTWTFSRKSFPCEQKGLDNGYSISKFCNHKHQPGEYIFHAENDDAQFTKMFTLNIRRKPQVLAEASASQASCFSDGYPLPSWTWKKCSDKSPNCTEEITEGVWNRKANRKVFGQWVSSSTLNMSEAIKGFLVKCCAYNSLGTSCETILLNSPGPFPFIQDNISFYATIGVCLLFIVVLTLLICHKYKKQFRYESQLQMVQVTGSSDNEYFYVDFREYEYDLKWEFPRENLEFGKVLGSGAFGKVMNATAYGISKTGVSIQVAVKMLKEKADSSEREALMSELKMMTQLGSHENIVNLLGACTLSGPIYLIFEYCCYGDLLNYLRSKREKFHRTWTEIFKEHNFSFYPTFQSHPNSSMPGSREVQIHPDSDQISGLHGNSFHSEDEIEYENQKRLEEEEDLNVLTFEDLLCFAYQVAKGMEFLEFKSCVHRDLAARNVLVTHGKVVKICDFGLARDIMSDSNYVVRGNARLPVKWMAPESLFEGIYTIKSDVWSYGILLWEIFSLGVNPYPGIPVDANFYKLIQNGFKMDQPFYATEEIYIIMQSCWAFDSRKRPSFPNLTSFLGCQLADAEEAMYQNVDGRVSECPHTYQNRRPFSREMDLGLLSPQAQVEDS
UniProt P06241, whole entry, looked up: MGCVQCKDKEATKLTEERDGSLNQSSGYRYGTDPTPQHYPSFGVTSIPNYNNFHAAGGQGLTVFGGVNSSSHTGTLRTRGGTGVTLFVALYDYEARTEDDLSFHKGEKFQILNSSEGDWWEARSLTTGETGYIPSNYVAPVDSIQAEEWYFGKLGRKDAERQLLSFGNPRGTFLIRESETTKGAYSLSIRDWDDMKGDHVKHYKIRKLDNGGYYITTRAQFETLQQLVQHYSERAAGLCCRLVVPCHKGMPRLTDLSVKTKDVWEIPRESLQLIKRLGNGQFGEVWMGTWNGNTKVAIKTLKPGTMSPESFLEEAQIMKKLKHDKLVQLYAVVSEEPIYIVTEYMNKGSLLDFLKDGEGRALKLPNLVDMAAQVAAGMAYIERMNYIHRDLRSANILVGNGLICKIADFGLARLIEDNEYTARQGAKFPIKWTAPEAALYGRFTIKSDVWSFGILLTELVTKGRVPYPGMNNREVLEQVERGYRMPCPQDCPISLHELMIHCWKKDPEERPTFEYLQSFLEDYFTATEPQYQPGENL
UniProt P49840: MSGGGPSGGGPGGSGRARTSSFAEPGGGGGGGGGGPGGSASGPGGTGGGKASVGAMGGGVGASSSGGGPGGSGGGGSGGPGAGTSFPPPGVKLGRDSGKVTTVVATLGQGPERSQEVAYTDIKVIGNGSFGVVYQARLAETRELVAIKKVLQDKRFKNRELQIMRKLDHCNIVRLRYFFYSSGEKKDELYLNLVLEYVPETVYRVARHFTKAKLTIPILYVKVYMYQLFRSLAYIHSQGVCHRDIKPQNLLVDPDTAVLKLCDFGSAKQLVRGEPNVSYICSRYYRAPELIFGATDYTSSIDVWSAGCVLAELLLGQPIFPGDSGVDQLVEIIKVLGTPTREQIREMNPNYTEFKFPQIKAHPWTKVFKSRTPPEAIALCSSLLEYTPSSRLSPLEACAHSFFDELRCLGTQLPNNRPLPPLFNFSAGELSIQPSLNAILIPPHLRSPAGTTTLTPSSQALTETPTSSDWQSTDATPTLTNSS
UniProt P14616: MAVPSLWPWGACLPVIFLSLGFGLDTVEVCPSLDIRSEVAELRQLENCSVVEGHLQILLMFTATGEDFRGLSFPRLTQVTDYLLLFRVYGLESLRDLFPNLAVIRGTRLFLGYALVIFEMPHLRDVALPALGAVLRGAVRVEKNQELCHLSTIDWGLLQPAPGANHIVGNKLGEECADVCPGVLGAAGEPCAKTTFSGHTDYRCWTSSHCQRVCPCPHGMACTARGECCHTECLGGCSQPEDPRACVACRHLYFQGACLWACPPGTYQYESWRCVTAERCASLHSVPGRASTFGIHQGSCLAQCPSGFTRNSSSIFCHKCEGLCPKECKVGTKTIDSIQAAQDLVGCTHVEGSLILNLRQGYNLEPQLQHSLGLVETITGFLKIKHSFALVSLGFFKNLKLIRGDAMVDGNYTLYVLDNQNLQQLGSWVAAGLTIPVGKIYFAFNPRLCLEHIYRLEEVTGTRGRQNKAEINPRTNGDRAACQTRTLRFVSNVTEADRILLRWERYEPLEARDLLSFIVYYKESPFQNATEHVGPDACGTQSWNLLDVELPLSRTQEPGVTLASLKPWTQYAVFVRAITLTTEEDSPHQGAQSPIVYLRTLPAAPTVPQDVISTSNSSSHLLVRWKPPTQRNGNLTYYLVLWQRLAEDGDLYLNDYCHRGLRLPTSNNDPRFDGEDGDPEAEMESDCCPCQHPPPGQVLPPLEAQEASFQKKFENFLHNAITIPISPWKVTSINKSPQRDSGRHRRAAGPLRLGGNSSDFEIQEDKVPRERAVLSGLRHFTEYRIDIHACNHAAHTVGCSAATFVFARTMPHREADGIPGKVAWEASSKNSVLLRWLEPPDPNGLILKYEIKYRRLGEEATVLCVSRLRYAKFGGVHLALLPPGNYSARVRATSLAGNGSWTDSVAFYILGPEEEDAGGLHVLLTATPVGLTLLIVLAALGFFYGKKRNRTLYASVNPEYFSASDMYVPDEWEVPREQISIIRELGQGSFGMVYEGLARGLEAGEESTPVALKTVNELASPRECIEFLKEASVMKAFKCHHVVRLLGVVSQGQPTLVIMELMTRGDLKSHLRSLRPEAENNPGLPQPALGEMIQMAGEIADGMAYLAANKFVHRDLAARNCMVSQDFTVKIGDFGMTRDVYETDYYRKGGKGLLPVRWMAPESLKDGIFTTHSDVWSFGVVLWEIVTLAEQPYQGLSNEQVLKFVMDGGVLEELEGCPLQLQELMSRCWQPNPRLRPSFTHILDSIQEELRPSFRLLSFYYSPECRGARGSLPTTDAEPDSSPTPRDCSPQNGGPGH

Tests used:
Assay in all cases: kinase-Nluc reporter destabilization hit call (1 = scored as downregulated) (binary); higher = compound decreases kinase abundance
Conditions in all cases: K562; 2-18 h
ERN1 = ERN1 (UniProt O75460)
FGFR1 = FGFR1 (UniProt P11362)
FGFR2 = FGFR2 (UniProt P21802)
FGFR3 = FGFR3 (UniProt P22607)
FGR = FGR (UniProt P09769)
FLT3 = FLT3 (UniProt P36888)
FYN = FYN (UniProt P06241)
GSK3A = GSK3A (UniProt P49840)
HER2 = HER2 (UniProt P04626)
INSRR = INSRR (UniProt P14616)

Measured: kinase-Nluc reporter destabilization hit call

Cn1cc(-c2ccc(F)c(C(F)(F)F)c2)nc1C1CCN(c2ncnc3[nH]ncc23)CC1 (10 µM)
inactive: ERN1 = 0 | FGFR1 = 0 | FGFR2 = 0 | FGFR3 = 0 | FGR 0 | FLT3 = 0 | FYN 0 | GSK3A 0 | HER2 = 0 | INSRR 0

CC1(N)CCN(c2cnc3c(-c4cccc(Cl)c4Cl)[nH]nc3n2)CC1 (2.5 µM)
inactive: ERN1 = 0 | FGFR1 = 0 | FGFR2 = 0 | FGFR3 = 0 | FGR 0 | FLT3 = 0 | FYN 0 | GSK3A 0 | HER2 = 0 | INSRR 0

NS(=O)(=O)c1ccc(N2N=C(c3ccccc3)CC2c2ccccc2)cc1 (stereo not given) (10 µM)
inactive: ERN1 = 0 | FGFR1 = 0 | FGFR2 = 0 | FGFR3 = 0 | FGR 0 | FLT3 = 0 | FYN 0 | GSK3A 0 | HER2 = 0 | INSRR 0

CC[C@@H]1C(=O)N(C)c2cnc(Nc3ccc(C(=O)N[C@H]4CC[C@H](N5CCN(CC6CC6)CC5)CC4)cc3OC)nc2N1C(C)C [Volasertib] (2.5 µM)
inactive: ERN1 = 0 | FGFR1 = 0 | FGFR2 = 0 | FGFR3 = 0 | FGR 0 | FLT3 = 0 | FYN 0 | GSK3A 0 | HER2 = 0 | INSRR 0
